These results are taken from paper PMC10861593, “Kisspeptin-10 binding to Gpr54 in osteoclasts prevents bone loss by activating Dusp18-mediated dephosphorylation of Src” (Nature Communications, 2024).

Protein sequences, listed by entry. Tags and fused reporters are not part of them.
UniProt Q91V45: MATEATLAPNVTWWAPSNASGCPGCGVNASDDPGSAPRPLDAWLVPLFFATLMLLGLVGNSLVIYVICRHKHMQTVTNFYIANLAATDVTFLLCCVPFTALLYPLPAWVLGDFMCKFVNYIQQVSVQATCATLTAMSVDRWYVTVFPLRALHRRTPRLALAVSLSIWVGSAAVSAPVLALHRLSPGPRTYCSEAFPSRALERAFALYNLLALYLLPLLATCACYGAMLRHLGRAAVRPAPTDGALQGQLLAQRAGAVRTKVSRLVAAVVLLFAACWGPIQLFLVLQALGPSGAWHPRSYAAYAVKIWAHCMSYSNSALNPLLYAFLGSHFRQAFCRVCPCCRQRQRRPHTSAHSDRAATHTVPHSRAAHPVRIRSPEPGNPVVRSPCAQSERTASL
UniProt P62137: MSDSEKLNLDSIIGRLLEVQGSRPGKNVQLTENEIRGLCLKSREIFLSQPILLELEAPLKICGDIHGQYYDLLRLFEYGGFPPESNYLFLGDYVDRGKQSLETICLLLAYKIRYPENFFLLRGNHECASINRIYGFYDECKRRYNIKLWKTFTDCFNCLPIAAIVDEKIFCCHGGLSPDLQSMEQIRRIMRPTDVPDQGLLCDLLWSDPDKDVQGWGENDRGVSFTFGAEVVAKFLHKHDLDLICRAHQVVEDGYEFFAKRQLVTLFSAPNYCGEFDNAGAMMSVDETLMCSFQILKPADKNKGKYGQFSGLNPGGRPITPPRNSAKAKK
UniProt P29351: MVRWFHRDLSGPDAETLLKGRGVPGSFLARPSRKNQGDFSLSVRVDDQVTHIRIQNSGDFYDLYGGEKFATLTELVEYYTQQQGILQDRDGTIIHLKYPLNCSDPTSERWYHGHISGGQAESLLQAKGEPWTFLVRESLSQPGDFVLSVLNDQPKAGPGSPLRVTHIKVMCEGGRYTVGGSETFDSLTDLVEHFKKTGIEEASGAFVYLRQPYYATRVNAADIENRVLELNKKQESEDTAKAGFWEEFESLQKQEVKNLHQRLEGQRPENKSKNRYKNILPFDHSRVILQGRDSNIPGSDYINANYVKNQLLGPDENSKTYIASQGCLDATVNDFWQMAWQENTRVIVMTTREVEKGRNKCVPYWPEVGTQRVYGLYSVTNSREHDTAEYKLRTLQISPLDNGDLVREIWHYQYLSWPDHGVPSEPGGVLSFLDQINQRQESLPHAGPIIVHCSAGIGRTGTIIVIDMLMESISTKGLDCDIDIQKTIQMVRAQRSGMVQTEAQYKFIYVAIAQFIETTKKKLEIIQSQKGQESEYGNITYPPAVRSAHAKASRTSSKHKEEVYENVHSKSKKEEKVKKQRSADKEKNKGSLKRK

Results are given in words; binding and its absence hold for the method and conditions named. In cells and extracts the contact can be indirect. Here binding means that the protein was enriched with, or labelled near, the bait; the list need not be complete.

This assay addresses Gpr54 (endogenous, mouse) (mouse (endogenous in RAW264.7)) (UniProt Q91V45). The assay can be described thus: affinity purification with mass spectrometry; anti-Gpr54 IP from RAW264.7 whole-cell lysates with or without Kp-10 for 20 min, on-bead digestion, Q-Exactive, label-free quantification.

For the molecule “PPP1CA (endogenous, mouse) (from UniProt P62137 1-330) (enzyme)”, the binding entry is on record as “binds”.

On to “PTPN6 (endogenous, mouse) (from UniProt P29351 1-595) (enzyme)”, for which the binding entry is “binds”.

B1: Dusp18 (endogenous, mouse) (enzyme, UniProt Q8VE01 1-188)
chain: MTSPWSAFPVQIPQPSIRGLSQITKSLFISNGVAANNKLLLSSNQITTVINVSVEVANTFYEDIQYVQVPVVDAPVARLSNFFDSVADRIHSVEMQKGRTLLHCAAGVSRSAALCLAYLMKYHAMSLVDAHTWTKSCRPIIRPNSGFWEQLIHYELQLFGKNTMQMMDSPMGRIPDIYEKETRLMIPL
Regarding B1, the binding entry is recorded as “binds”.
